Binding data for 1 molecule are collected here from article PMC11059408, “Atypical heat shock transcription factor HSF5 is critical for male meiotic prophase under non-stress conditions” (Nature Communications, 2023).

No constants are given. Whether binding was seen depends on the method and setting.

In assay [1] the target is HSF5 fragment (aa 1-209) containing DNA binding domain (mouse) (UniProt Q5ND04). The assay is described as follows: SEC-MALS; room temperature (25 °C); PROTEIN KW-803 column; 25 mM HEPES/KOH pH 7.2, 150 mM KCl; about 100 μL injected at 1.0 mL/min; both purified.
Assay [2] has the same target. The experiment in a line: SEC-MALS; after heat treatment at 42 °C for 30 min; 100 μL of MBP-full length HSF5 (12.6 μM) or HSF5-DBD (26.6 μM) injected; PROTEIN KW-803 column; 25 mM HEPES/KOH pH 7.2, 150 mM KCl; both purified.

B1: HSF5 fragment (aa 1-209) containing DNA binding domain (domain or fragment, UniProt Q5ND04 1-209)
chain: MEEALLSTPINPNNFPAKLWRLVNSPRYRSIRWDGRGEGLLIDQPLFEAELLSPPGPGAGGAGGAGSSGGGGGSGVGAAGAEPELFKTTNFTSFIRQLNLYGFRKVVLGGPGAAGPGPGPGAGGPAGDGPLHHFHSPHFRRDQPQLLVHLKRLTSANKAKLAAGLEVPCRPPNRFQRLLITSASASASASTSPLQHQDPPPQPAGPRPE
Turning to B1, the binding result in assay [1] is “no binding”; in assay [2], “no binding (tested: 26.6 μM injected)”.
